The results in this text go back to paper PMC4231747.

Protein sequences, listed by entry. Tags and fused reporters are not part of them.
UniProt P40160: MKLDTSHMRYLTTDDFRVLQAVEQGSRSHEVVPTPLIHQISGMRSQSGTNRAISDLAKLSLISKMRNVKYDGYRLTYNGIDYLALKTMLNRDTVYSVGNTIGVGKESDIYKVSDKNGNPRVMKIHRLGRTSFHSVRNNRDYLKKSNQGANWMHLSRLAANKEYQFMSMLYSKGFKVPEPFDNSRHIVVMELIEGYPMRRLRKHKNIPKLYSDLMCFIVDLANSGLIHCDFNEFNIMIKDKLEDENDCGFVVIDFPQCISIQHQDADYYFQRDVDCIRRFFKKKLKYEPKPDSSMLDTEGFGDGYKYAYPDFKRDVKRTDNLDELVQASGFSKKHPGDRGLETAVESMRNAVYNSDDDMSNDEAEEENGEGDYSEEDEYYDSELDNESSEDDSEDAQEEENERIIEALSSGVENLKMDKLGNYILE
UniProt P41819: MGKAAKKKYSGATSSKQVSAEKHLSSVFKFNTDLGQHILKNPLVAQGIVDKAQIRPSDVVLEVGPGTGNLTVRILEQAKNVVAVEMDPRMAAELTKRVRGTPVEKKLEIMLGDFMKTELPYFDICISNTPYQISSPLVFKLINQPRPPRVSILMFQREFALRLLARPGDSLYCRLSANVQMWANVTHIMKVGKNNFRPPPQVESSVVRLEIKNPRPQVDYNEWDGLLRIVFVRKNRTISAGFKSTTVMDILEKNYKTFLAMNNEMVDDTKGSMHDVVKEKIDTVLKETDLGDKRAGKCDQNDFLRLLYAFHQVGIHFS

One experiment has as its target Rio2-TAP (S. cerevisiae) (UniProt P40160). Nature of the experiment: affinity purification with mass spectrometry; pre-ribosomal particles purified from yeast by the tagged bait (Nob1-HTP, Pno1-TAP, Rio2-TAP, Rio1-TAP), fractionated on a Superose 6 gel filtration column; elution fractions 1-5 digested and analysed by LC-MS/MS. A general note: SEC sorts molecules by how far they enter the pores of the column.

The target in a further experiment is T1, Nob1-HTP (S. cerevisiae) (UniProt Q08444).
T1 sequence: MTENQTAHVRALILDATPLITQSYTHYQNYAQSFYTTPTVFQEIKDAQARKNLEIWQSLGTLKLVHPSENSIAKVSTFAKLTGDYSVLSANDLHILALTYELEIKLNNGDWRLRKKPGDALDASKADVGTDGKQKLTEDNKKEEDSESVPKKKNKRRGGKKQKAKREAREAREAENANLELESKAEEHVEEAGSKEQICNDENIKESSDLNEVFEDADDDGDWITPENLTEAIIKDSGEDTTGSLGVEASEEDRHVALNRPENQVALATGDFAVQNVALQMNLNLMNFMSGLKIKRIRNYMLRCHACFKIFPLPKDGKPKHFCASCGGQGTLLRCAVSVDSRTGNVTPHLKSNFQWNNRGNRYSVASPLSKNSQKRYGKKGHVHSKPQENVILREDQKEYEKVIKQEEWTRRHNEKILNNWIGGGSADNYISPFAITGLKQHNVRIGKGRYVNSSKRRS
Described as above.

These are yes or no findings as the source states them, for the method shown. In cells and extracts the contact can be indirect. Here binding means that the protein was enriched with, or labelled near, the bait; the list need not be complete.

Dim1 (from UniProt P41819 1-318): the binding entry in the experiment with Rio2-TAP (S. cerevisiae) and with Nob1-HTP (S. cerevisiae) was “binds” each time.
